Laboratory results: doi:10.1101/2020.12.17.422596
No constants are given. Whether binding was seen depends on the method and setting. In cells and extracts the contact can be indirect. Here binding means that the protein was enriched with, or labelled near, the bait; the list need not be complete. For some of these results: Sequences can lack the tags named with a protein.

The chains behind the UniProt entries cited, without tags or fusion partners.
UniProt Q92609: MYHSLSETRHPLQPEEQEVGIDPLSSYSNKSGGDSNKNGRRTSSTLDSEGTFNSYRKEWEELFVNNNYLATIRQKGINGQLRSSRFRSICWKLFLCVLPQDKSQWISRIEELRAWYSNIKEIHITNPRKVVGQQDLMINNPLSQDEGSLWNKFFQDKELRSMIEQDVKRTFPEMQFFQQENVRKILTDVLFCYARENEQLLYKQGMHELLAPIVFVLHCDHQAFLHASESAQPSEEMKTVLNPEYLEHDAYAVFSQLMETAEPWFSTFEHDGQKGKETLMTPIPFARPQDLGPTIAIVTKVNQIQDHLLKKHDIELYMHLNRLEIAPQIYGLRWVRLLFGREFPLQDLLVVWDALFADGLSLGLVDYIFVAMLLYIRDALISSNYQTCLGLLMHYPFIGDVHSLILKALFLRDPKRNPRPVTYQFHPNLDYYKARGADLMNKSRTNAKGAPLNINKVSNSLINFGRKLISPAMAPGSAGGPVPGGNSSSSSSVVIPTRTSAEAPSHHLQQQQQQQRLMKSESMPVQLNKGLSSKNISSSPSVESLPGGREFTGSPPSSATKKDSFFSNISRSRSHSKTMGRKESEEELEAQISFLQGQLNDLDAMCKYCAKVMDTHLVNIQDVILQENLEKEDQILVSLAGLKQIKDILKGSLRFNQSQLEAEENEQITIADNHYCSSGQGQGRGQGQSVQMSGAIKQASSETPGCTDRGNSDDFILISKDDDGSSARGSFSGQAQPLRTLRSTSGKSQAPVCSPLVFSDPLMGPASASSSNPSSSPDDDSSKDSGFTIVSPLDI

T1: Myc-APEX2-Atg4B (human) (UniProt Q9Y4P1)
T1 sequence: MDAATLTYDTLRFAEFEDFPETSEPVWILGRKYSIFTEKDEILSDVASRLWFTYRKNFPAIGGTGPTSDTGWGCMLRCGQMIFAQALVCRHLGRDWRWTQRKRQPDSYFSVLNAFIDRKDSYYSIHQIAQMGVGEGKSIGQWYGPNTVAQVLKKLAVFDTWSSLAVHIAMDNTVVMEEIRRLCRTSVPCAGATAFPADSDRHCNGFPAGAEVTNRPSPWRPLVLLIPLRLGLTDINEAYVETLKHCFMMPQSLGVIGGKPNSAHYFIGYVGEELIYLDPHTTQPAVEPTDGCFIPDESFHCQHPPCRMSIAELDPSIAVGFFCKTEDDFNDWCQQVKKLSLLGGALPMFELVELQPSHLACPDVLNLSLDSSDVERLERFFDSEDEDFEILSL

T2: Myc-APEX2-Atg4A (human) (UniProt Q8WYN0)
T2 sequence: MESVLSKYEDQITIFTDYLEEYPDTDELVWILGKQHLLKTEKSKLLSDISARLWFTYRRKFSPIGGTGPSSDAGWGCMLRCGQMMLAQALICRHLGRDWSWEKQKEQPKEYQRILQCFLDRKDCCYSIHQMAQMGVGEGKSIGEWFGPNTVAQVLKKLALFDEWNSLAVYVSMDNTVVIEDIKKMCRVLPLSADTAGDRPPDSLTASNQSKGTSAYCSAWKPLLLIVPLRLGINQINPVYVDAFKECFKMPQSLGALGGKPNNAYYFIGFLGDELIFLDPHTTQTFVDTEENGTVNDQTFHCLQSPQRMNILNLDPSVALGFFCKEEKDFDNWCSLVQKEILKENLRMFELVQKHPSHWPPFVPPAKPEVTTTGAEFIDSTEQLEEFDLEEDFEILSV

B1: ARFIP2 (protein, UniProt P53365 1-341)
chain: MTDGILGKAATMEIPIHGNGEARQLPEDDGLEQDLQQVMVSGPNLNETSIVSGGYGGSGDGLIPTGSGRHPSHSTTPSGPGDEVARGIAGEKFDIVKKWGINTYKCTKQLLSERFGRGSRTVDLELELQIELLRETKRKYESVLQLGRALTAHLYSLLQTQHALGDAFADLSQKSPELQEEFGYNAETQKLLCKNGETLLGAVNFFVSSINTLVTKTMEDTLMTVKQYEAARLEYDAYRTDLEELSLGPRDAGTRGRLESAQATFQAHRDKYEKLRGDVAIKLKFLEENKIKVMHKQLLLFHNAVSAYFAGNQKQLEQTLQQFNIKLRPPGAEKPSWLEEQ
B2: WDR11 (protein, UniProt Q9BZH6 1-1224)
chain: MLPYTVNFKVSARTLTGALNAHNKAAVDWGWQGLIAYGCHSLVVVIDSITAQTLQVLEKHKADVVKVKWARENYHHNIGSPYCLRLASADVNGKIIVWDVAAGVAQCEIQEHAKPIQDVQWLWNQDASRDLLLAIHPPNYIVLWNADTGTKLWKKSYADNILSFSFDPFDPSHLTLLTSEGIVFISDFSPSKPPSGPGKKVYISSPHSSPAHNKLATATGAKKALNKVKILITQEKPSAEFITLNDCLQLAYLPSKRNHMLLLYPREILILDLEVNQTVGVIAIERTGVPFLQVIPCFQRDGLFCLHENGCITLRVRRSYNNIFTTSNEEPDPDPVQELTYDLRSQCDAIRVTKTVRPFSMVCCPVNENAAALVVSDGRVMIWELKSAVCNRNSRNSSSGVSPLYSPVSFCGIPVGVLQNKLPDLSLDNMIGQSAIAGEEHPRGSILREVHLKFLLTGLLSGLPAPQFAIRMCPPLTTKNIKMYQPLLAVGTSNGSVLVYHLTSGLLHKELSIHSCEVKGIEWTSLTSFLSFATSTPNNMGLVRNELQLVDLPTGRSIAFRGERGNDESAIEMIKVSHLKQYLAVVFRDKPLELWDVRTCTLLREMSKNFPTITALEWSPSHNLKSLRKKQLATREAMARQTVVSDTELSIVESSVISLLQEAESKSELSQNISAREHFVFTDIDGQVYHLTVEGNSVKDSARIPPDGSMGSITCIAWKGDTLVLGDMDGNLNFWDLKGRVSRGIPTHRSWVRKIRFAPGKGNQKLIAMYNDGAEVWDTKEVQMVSSLRSGRNVTFRILDVDWCTSDKVILASDDGCIRVLEMSMKSACFRMDEQELTEPVWCPYLLVPRASLALKAFLLHQPWNGQYSLDISHVDYPENEEIKNLLQEQLNSLSNDIKKLLLDPEFTLLQRCLLVSRLYGDESELHFWTVAAHYLHSLSQEKSASTTAPKEAAPRDKLSNPLDICYDVLCENAYFQKFQLERVNLQEVKRSTYDHTRKCTDQLLLLGQTDRAVQLLLETSADNQHYYCDSLKACLVTTVTSSGPSQSTIKLVATNMIANGKLAEGVQLLCLIDKAADACRYLQTYGEWNRAAWLAKVRLNPEECADVLRRWVDHLCSPQVNQKSKALLVLLSLGCFFSVAETLHSMRYFDRAALFVEACLKYGAFEVTEDTEKLITAIYADYARSLKNLGFKQGAVLFASKAGAAGKDLLNELESPKEEPIEE
B3: FYCO1 (protein, UniProt Q9BQS8 1-1478)
chain: MASTNAESQLQRIIRDLQDAVTELSKEFQEAGEPITDDSTSLHKFSYKLEYLLQFDQKEKATLLGNKKDYWDYFCACLAKVKGANDGIRFVKSISELRTSLGKGRAFIRYSLVHQRLADTLQQCFMNTKVTSDWYYARSPFLQPKLSSDIVGQLYELTEVQFDLASRGFDLDAAWPTFARRTLTTGSSAYLWKPPSRSSSMSSLVSSYLQTQEMVSNFDLNSPLNNEALEGFDEMRLELDQLEVREKQLRERMQQLDRENQELRAAVSQQGEQLQTERERGRTAAEDNVRLTCLVAELQKQWEVTQATQNTVKELQTCLQGLELGAAEKEEDYHTALRRLESMLQPLAQELEATRDSLDKKNQHLASFPGWLAMAQQKADTASDTKGRQEPIPSDAAQEMQELGEKLQALERERTKVEEVNRQQSAQLEQLVKELQLKEDARASLERLVKEMAPLQEELSGKGQEADQLWRRLQELLAHTSSWEEELAELRREKKQQQEEKELLEQEVRSLTRQLQFLETQLAQVSQHVSDLEEQKKQLIQDKDHLSQQVGMLERLAGPPGPELPVAGEKNEALVPVNSSLQEAWGKPEEEQRGLQEAQLDDTKVQEGSQEEELRQANRELEKELQNVVGRNQLLEGKLQALQADYQALQQRESAIQGSLASLEAEQASIRHLGDQMEASLLAVRKAKEAMKAQMAEKEAILQSKEGECQQLREEVEQCQQLAEARHRELRALESQCQQQTQLIEVLTAEKGQQGVGPPTDNEARELAAQLALSQAQLEVHQGEVQRLQAQVVDLQAKMRAALDDQDKVQSQLSMAEAVLREHKTLVQQLKEQNEALNRAHVQELLQCSEREGALQEERADEAQQREEELRALQEELSQAKCSSEEAQLEHAELQEQLHRANTDTAELGIQVCALTVEKERVEEALACAVQELQDAKEAASREREGLERQVAGLQQEKESLQEKLKAAKAAAGSLPGLQAQLAQAEQRAQSLQEAAHQELNTLKFQLSAEIMDYQSRLKNAGEECKSLRGQLEEQGRQLQAAEEAVEKLKATQADMGEKLSCTSNHLAECQAAMLRKDKEGAALREDLERTQKELEKATTKIQEYYNKLCQEVTNRERNDQKMLADLDDLNRTKKYLEERLIELLRDKDALWQKSDALEFQQKLSAEERWLGDTEANHCLDCKREFSWMVRRHHCRICGRIFCYYCCNNYVLSKHGGKKERCCRACFQKLSEGPGSPDSSGSGTSQGEPSPALSPASPGPQATGGQGANTDYRPPDDAVFDIITDEELCQIQESGSSLPETPTETDSLDPNAAEQDTTSTSLTPEDTEDMPVGQDSEICLLKSGELMIKVPLTVDEIASFGEGSRELFVRSSTYSLIPITVAEAGLTISWVFSSDPKSISFSVVFQEAEDTPLDQCKVLIPTTRCNSHKENIQGQLKVRTPGIYMLIFDNTFSRFVSKKVFYHLTVDRPVIYDGSDFL

Columns and labels:
Assay in all cases: proximity labelling
Myc-APEX2-Atg4B (human) = target: T1, Myc-APEX2-Atg4B (human)
Myc-APEX2-Atg4A (human) = target: T2, Myc-APEX2-Atg4A (human)
Myc-APEX2-Atg4D (human) = Myc-APEX2-Atg4D (human) (UniProt Q86TL0)

| Molecule | binding (Myc-APEX2-Atg4B (human)) | binding (Myc-APEX2-Atg4A (human)) | binding (Myc-APEX2-Atg4D (human)) |
| --- | --- | --- | --- |
| TBC1D5 (from UniProt Q92609 1-795) | binds | binds | – |
| B1 | binds | binds | – |
| B2 | – | binds | binds |
| B3 | – | binds | – |
